Test results published in the supplement of paper PMC10849652.
Some of the results follow.

The chains behind the UniProt entries cited, without tags or fusion partners. Where a name states a change or a piece, a line headed by the entry shows the natural chain unless it says otherwise.
UniProt O15126: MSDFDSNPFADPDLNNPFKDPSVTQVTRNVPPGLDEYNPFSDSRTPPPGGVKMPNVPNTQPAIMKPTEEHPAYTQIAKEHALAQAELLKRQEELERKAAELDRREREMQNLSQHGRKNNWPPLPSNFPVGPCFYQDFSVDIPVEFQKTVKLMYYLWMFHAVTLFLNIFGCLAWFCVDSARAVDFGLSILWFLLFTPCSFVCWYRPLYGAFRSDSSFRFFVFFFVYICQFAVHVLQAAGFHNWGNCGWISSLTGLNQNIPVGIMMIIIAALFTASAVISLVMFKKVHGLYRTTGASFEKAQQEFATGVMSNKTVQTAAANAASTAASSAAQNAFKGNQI
UniProt Q6NW29: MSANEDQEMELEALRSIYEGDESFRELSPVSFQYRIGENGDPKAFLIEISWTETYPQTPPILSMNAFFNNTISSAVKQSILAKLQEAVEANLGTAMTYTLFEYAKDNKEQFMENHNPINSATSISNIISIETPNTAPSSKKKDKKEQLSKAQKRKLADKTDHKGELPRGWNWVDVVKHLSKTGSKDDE
UniProt O43290: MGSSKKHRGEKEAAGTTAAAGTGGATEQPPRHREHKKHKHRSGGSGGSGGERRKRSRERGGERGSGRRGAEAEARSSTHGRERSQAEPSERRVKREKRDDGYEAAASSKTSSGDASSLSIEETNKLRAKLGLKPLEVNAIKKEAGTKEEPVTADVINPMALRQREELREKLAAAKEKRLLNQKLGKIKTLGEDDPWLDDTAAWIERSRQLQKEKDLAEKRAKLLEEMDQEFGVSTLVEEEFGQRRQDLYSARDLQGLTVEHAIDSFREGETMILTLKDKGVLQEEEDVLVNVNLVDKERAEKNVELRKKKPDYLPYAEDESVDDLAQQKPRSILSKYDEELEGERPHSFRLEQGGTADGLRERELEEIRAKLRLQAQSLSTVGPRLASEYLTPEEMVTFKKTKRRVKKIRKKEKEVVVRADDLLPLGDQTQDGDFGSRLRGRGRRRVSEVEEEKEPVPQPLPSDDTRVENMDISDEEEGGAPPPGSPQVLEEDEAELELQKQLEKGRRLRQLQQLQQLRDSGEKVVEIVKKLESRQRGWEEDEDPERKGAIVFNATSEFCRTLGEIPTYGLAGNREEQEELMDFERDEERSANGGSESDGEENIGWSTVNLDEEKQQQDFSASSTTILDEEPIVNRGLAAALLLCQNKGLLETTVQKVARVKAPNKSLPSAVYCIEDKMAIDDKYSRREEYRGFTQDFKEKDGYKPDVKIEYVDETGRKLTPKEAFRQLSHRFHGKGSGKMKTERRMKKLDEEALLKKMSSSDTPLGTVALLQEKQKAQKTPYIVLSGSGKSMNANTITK
UniProt Q6P3W7: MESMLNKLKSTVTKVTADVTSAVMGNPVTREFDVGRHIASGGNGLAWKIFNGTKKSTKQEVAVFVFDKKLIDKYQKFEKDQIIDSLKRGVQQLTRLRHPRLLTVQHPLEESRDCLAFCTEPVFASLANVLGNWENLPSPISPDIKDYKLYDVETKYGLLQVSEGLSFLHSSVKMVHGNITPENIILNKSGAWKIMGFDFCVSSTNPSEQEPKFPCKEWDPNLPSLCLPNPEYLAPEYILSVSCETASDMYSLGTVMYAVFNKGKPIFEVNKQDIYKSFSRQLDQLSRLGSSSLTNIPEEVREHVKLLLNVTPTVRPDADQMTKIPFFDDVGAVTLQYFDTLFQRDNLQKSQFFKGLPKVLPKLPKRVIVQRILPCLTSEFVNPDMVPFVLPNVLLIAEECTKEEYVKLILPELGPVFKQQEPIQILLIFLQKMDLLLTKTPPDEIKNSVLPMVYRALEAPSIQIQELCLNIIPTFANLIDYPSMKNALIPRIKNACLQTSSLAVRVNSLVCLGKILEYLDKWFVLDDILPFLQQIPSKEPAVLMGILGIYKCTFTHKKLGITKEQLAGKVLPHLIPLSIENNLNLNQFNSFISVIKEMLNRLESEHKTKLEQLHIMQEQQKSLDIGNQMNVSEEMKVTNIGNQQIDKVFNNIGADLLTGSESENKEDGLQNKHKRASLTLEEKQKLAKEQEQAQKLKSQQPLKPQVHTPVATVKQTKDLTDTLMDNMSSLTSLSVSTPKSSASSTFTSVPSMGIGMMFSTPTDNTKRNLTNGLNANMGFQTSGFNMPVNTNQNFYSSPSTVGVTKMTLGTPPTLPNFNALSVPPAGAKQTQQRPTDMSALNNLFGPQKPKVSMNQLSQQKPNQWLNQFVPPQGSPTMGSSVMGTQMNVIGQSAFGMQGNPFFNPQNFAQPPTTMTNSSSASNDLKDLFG
UniProt Q6IQ49: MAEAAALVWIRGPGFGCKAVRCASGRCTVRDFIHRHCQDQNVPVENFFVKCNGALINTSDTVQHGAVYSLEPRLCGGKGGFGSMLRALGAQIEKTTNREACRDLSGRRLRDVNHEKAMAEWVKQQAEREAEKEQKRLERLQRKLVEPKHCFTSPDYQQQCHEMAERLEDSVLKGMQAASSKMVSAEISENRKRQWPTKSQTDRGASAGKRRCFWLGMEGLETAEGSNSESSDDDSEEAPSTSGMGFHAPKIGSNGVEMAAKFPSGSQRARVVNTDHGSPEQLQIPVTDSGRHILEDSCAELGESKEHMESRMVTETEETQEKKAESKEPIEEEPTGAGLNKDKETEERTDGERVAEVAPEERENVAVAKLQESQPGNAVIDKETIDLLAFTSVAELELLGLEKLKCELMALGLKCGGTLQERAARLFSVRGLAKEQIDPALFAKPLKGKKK
UniProt P21912: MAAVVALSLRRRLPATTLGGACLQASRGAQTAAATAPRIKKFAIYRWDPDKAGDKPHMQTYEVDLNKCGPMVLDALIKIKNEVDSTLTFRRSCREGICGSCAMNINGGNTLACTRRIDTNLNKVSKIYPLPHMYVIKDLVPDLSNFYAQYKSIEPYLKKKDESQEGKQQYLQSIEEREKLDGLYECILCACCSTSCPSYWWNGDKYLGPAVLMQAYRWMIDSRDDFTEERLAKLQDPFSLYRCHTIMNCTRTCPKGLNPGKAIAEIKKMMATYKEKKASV
UniProt Q0VDG4: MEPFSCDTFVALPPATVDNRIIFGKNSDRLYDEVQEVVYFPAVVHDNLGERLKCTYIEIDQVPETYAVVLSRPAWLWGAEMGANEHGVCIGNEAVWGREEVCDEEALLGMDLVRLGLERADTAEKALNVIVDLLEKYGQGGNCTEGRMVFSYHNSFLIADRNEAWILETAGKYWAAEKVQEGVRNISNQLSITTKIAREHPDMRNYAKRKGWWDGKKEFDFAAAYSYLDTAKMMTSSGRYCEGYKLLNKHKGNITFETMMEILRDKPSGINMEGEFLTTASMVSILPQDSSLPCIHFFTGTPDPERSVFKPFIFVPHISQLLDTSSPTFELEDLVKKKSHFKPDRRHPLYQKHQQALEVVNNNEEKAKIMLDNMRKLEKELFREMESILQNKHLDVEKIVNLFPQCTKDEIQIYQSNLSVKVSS
UniProt O75396: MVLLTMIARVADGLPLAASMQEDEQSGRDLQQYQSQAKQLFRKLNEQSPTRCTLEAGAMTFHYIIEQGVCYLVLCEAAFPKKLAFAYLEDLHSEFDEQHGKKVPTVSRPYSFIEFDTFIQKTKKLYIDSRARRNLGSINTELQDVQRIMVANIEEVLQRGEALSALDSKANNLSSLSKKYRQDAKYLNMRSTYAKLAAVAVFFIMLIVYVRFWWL
UniProt Q9HCN8: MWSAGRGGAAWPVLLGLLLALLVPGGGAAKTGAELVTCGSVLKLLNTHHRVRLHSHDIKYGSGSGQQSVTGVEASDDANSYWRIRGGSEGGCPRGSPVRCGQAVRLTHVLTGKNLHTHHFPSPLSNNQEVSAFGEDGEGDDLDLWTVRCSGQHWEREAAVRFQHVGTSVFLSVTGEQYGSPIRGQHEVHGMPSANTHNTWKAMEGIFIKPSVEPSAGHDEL
UniProt Q9Y3I0: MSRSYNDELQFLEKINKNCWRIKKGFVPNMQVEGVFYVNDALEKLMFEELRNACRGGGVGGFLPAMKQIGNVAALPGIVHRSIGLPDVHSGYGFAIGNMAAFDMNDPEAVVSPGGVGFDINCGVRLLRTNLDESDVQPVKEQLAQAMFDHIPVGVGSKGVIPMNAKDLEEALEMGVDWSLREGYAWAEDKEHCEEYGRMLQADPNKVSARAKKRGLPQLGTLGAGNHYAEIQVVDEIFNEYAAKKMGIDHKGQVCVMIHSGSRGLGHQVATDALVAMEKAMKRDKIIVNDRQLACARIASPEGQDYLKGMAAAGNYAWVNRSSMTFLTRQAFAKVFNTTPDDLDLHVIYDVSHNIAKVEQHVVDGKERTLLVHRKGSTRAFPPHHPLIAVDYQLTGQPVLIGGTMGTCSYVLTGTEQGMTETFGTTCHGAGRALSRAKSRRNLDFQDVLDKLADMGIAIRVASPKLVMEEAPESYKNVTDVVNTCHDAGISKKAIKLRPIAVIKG
UniProt Q96GA7: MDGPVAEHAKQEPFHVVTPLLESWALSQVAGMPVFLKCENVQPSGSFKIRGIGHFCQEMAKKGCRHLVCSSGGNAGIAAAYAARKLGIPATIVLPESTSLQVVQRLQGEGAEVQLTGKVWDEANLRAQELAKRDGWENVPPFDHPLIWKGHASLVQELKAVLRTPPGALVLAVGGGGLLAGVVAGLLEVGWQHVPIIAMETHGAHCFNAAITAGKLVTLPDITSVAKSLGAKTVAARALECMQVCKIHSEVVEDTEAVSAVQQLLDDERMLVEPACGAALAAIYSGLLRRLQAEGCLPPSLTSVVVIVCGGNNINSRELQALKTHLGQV
UniProt Q9Y512: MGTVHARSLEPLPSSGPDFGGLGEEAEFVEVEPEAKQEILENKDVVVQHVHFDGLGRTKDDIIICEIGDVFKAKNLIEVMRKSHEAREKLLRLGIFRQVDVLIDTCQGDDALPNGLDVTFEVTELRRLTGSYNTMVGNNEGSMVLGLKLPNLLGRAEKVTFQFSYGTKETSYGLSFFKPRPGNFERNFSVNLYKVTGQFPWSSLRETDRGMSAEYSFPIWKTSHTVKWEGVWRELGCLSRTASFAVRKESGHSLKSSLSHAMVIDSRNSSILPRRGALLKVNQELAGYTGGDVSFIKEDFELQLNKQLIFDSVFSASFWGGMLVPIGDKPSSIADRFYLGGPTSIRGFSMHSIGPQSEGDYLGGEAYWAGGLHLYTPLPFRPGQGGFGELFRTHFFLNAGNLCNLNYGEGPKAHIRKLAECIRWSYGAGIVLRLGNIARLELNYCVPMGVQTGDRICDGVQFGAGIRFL
UniProt O00442: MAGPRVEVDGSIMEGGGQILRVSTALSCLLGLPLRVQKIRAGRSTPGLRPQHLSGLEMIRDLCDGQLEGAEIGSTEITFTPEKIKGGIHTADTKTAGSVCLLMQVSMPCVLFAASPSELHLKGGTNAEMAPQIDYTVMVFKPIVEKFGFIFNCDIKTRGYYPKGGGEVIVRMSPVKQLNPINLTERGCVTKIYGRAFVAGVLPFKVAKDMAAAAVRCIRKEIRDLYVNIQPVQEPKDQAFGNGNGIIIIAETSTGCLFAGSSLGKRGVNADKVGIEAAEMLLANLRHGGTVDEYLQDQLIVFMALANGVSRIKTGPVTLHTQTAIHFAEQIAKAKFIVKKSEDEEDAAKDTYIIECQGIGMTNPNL
UniProt Q9BY50: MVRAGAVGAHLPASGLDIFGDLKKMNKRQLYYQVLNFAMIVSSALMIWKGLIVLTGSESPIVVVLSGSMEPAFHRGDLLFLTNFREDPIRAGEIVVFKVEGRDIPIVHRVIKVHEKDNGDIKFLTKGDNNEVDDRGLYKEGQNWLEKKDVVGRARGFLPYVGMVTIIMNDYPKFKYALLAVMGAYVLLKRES
UniProt Q15404: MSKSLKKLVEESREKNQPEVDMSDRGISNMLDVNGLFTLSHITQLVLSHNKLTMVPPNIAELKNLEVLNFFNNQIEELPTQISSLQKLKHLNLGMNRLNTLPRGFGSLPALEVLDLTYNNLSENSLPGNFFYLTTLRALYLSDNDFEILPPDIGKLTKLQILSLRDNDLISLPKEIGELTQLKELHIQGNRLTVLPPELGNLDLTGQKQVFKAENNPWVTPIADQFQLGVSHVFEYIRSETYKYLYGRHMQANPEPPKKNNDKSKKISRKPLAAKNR
UniProt Q99584: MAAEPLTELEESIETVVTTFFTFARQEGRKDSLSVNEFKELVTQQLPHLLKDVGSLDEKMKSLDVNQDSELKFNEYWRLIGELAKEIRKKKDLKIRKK

Experiments:
Experiment in all cases: log2 fold change, soluble protein after heating vs DMSO (PISA); higher = thermal stabilisation; K562 cells, 10 uM, 30 min; active = over 0.2 and 3.5 SD of the protein, either way, in both replicates (recomputed)
[1] = compound: CS(=O)(=O)c1ccc(-c2cnc(N)c(C(=O)Nc3ccccc3)n2)cc1
Summary of the method: (§1)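 Thermal stability values are relative to control samples and come from duplicates. They are expressed as log2 fold changes. For measurement, K562 cells (2×10^6 cells/mL) received 10 μM compound for 30 min, and aliquots were heated for 3 min over 48°C-58°C, pooled, and extracted at 4°C in PBS with 0.5% NP-40. Soluble protein, the supernatant after 21,000xg for 90 min, was quantified by TMTpro 16plex LC-MS/MS with equalised channel sums.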

crizotinib = compound: C[C@@H](Oc1cc(-c2cnn(C3CCNCC3)c2)cnc1N)c1c(Cl)ccc(F)c1Cl [crizotinib]
Summary of the method: as §1

[2] = compound: C[C@@H]1COCCN1C2=NC(=NC(=C2)C3(CC3)S(=O)(=O)C)C4=C5C=CNC5=CC=C4
Summary of the method: as §1

[3] = compound: C[C@H](C1=CC=C(C=C1)C(=O)NC2=C3C=CNC3=NC=C2)N
Summary of the method: as §1

duvelisib = compound: C[C@H](Nc1ncnc2nc[nH]c12)c1cc2cccc(Cl)c2c(=O)n1-c1ccccc1 [duvelisib]
Summary of the method: as §1

gandotinib = compound: Cc1cc(Nc2cc(CN3CCOCC3)c3nc(C)c(Cc4ccc(Cl)cc4F)n3n2)n[nH]1 [gandotinib]
Summary of the method: as §1

tozasertib = compound: Cc1cc(Nc2cc(N3CCN(C)CC3)nc(Sc3ccc(NC(=O)C4CC4)cc3)n2)n[nH]1 [tozasertib]
Summary of the method: as §1

[4] = compound: Cc1cc(SCc2sc(-c3ccc(C(F)(F)F)cc3)nc2C)ccc1OCC(=O)O
Summary of the method: as §1

doramapimod = compound: Cc1ccc(-n2nc(C(C)(C)C)cc2NC(=O)Nc2ccc(OCCN3CCOCC3)c3ccccc23)cc1 [doramapimod]
Summary of the method: as §1

ispinesib = compound: Cc1ccc(C(=O)N(CCCN)[C@@H](c2nc3cc(Cl)ccc3c(=O)n2Cc2ccccc2)C(C)C)cc1 [ispinesib]
Summary of the method: as §1

bafetinib = compound: Cc1ccc(NC(=O)c2ccc(CN3CC[C@H](N(C)C)C3)c(C(F)(F)F)c2)cc1Nc1nccc(-c2cncnc2)n1 [bafetinib]
Summary of the method: as §1

[5] = compound: Cc1cccc(CC(=O)N2CCc3c2ccc(-c2cn(C)c4ncnc(N)c24)c3F)n1
Summary of the method: as §1

nilotinib = compound: Cc1cn(-c2cc(NC(=O)c3ccc(C)c(Nc4nccc(-c5cccnc5)n4)c3)cc(C(F)(F)F)c2)cn1 [nilotinib]
Summary of the method: as §1

[6] = compound: Cc1nc(Nc2n[nH]c3c2CN(C(=O)N[C@H](CN(C)C)c2ccccc2)C3(C)C)c2sccc2n1
Summary of the method: as §1

dasatinib = compound: Cc1nc(Nc2ncc(C(=O)Nc3c(C)cccc3Cl)s2)cc(N2CCN(CCO)CC2)n1 [dasatinib]
Summary of the method: as §1

[7] = compound: Cc1ncc(-c2ccnc(Nc3ccc(S(C)(=O)=O)cc3)n2)n1C(C)C
Summary of the method: as §1

[8] = compound: Cn1cc(-c2ccc3c(c2)CCN3C(=O)Cc2cccc(C(F)(F)F)c2)c2c(N)ncnc21
Summary of the method: as §1

[9] = compound: Cn1cc(-c2ccc3nnc(C(F)(F)c4ccc5ncccc5c4)n3n2)cn1
Summary of the method: as §1

tipifarnib = compound: Cn1cncc1[C@@](N)(c1ccc(Cl)cc1)c1ccc2c(c1)c(-c1cccc(Cl)c1)cc(=O)n2C [tipifarnib]
Summary of the method: as §1

mubritinib = compound: FC(F)(F)c1ccc(/C=C/c2nc(COc3ccc(CCCCn4ccnn4)cc3)co2)cc1 [mubritinib]
Summary of the method: as §1

Measured: log2 fold change

SCAMP1 (UniProt O15126)
inactive: [1] 0.027 | crizotinib -0.042 | [2] -0.076 | [3] -0.05 | duvelisib -0.008 | gandotinib 0.023 | tozasertib -0.064 | [4] -0.04 | doramapimod 0.01 | ispinesib -0.159 | bafetinib -0.085 | [5] -0.041 | nilotinib -0.02 | [6] 0.003 | dasatinib 0.027 | [7] 0.031 | [8] 0.025 | [9] 0.034 | tipifarnib 0.065 | mubritinib 0.007

RWDD4 (UniProt Q6NW29)
inactive: [1] 0.053 | crizotinib 0.011 | [2] 0.015 | [3] 0.015 | duvelisib 0.062 | gandotinib -0.039 | tozasertib 0.05 | [4] 0.016 | doramapimod 0.016 | ispinesib -0.143 | bafetinib -0.129 | [5] 0.032 | nilotinib 0.223 | [6] 0.006 | dasatinib -0.076 | [7] -0.101 | [8] 0 | [9] 0.07 | tipifarnib -0.012 | mubritinib 0.028

SART1 (UniProt O43290)
inactive: [1] -0.101 | crizotinib -0.079 | [2] -0.646 | [3] 0.265 | duvelisib -0.214 | gandotinib 0.201 | tozasertib 0.005 | [4] 0.024 | doramapimod 0.296 | ispinesib -0.213 | bafetinib 0.21 | [5] -0.03 | nilotinib 0.038 | [6] -0.057 | dasatinib 0.108 | [7] -0.08 | [8] -0.372 | [9] -0.225 | tipifarnib 0.167 | mubritinib -0.156

SCYL2 (UniProt Q6P3W7)
inactive: [1] -0.033 | crizotinib -0.054 | [2] 0.043 | [3] -0.022 | duvelisib 0.035 | gandotinib -0.115 | tozasertib -0.001 | [4] -0.02 | doramapimod 0.011 | ispinesib 0.018 | bafetinib -0.05 | [5] 0.018 | nilotinib -0.007 | [6] -0.007 | dasatinib -0.103 | [7] -0.017 | [8] 0.023 | [9] -0.052 | tipifarnib -0.029 | mubritinib 0.018

SDE2 (UniProt Q6IQ49)
inactive: [1] 0.011 | crizotinib 0.049 | [2] -0.01 | [3] 0.145 | duvelisib 0.077 | gandotinib -0.022 | tozasertib 0.056 | [4] -0.061 | doramapimod -0.014 | ispinesib 0.018 | bafetinib -0.096 | [5] -0.011 | nilotinib -0.071 | [6] 0.018 | dasatinib 0.038 | [7] 0.059 | [8] -0.067 | [9] 0.028 | tipifarnib 0.012 | mubritinib 0.025

SDHB (UniProt P21912)
inactive: [1] 0.027 | crizotinib 0.045 | [2] 0.023 | [3] -0.029 | duvelisib -0.005 | gandotinib 0.013 | tozasertib -0.023 | [4] -0.062 | doramapimod -0.041 | ispinesib 0.009 | bafetinib -0.073 | [5] -0.094 | nilotinib 0.115 | [6] -0.027 | dasatinib 0.041 | [7] -0.001 | [8] 0.009 | [9] 0 | tipifarnib 0.015 | mubritinib 0.03

SCRN3 (UniProt Q0VDG4)
inactive: [1] 0.017 | crizotinib 0.032 | [2] 0.009 | [3] -0.051 | duvelisib 0.001 | gandotinib 0.034 | tozasertib 0.046 | [4] 0.021 | doramapimod 0.001 | ispinesib -0.031 | bafetinib -0.047 | [5] 0.066 | nilotinib 0.004 | [6] -0.05 | dasatinib -0.011 | [7] -0.03 | [8] -0.003 | [9] 0.021 | tipifarnib 0.024 | mubritinib 0.062

SEC22B (UniProt O75396)
inactive: [1] 0.006 | crizotinib 0.071 | [2] 0.04 | [3] -0.076 | duvelisib 0.033 | gandotinib -0.068 | tozasertib 0.011 | [4] 0.037 | doramapimod 0 | ispinesib 0.186 | bafetinib -0.003 | [5] 0.047 | nilotinib -0.016 | [6] -0.004 | dasatinib -0.021 | [7] 0.008 | [8] 0.049 | [9] -0.007 | tipifarnib -0.021 | mubritinib 0.025

SDF2L1 (UniProt Q9HCN8)
inactive: [1] 0.033 | crizotinib 0.076 | [2] 0.057 | [3] 0.013 | duvelisib -0.031 | gandotinib 0.04 | tozasertib 0.026 | [4] 0.03 | doramapimod -0.007 | ispinesib -0.038 | bafetinib 0.014 | [5] 0.008 | nilotinib 0.033 | [6] 0.023 | dasatinib 0.024 | [7] -0.048 | [8] -0.069 | [9] 0.018 | tipifarnib 0.022 | mubritinib -0.061

RTCB (UniProt Q9Y3I0)
inactive: [1] -0.007 | crizotinib -0.018 | [2] -0.065 | [3] 0.025 | duvelisib -0.027 | gandotinib 0.012 | tozasertib 0.011 | [4] -0.008 | doramapimod 0.04 | ispinesib 0.001 | bafetinib -0.153 | [5] 0.014 | nilotinib 0.016 | [6] 0.066 | dasatinib 0.022 | [7] -0.025 | [8] -0.013 | [9] 0.006 | tipifarnib 0.002 | mubritinib 0.012

SDSL (UniProt Q96GA7)
inactive: [1] -0.025 | crizotinib 0.004 | [2] 0.012 | [3] -0.058 | duvelisib 0.043 | gandotinib 0.076 | tozasertib -0.019 | [4] 0.035 | doramapimod 0.004 | ispinesib 0.006 | bafetinib -0.057 | [5] -0.042 | nilotinib 0.026 | [6] 0.018 | dasatinib 0.033 | [7] -0.039 | [8] 0.004 | [9] 0.009 | tipifarnib 0.103 | mubritinib 0.063

SAMM50 (UniProt Q9Y512)
inactive: [1] 0.015 | crizotinib 0.042 | [2] -0.023 | [3] -0.06 | duvelisib -0.003 | gandotinib -0.029 | tozasertib 0.008 | [4] -0.023 | doramapimod -0.037 | ispinesib -0.006 | bafetinib -0.09 | [5] 0.018 | nilotinib -0.008 | [6] 0.017 | dasatinib 0.042 | [7] 0.002 | [8] 0.014 | [9] 0.012 | tipifarnib 0.044 | mubritinib 0.062

RTCA (UniProt O00442)
inactive: [1] 0.012 | crizotinib -0.013 | [2] 0.041 | [3] -0.001 | duvelisib -0.013 | gandotinib -0.085 | tozasertib -0.044 | [4] 0.062 | doramapimod 0.014 | ispinesib -0.028 | bafetinib -0.062 | [5] -0.041 | nilotinib 0.039 | [6] 0.016 | dasatinib -0.054 | [7] 0 | [8] 0.046 | [9] -0.001 | tipifarnib -0.025 | mubritinib -0.036

2 neighbouring entries out of the list so far, for reference:
SDE2 (UniProt Q6IQ49)
inactive: [1] 0.011 | crizotinib 0.049 | [2] -0.01 | [3] 0.145 | duvelisib 0.077 | gandotinib -0.022 | tozasertib 0.056 | [4] -0.061 | doramapimod -0.014 | ispinesib 0.018 | bafetinib -0.096 | [5] -0.011 | nilotinib -0.071 | [6] 0.018 | dasatinib 0.038 | [7] 0.059 | [8] -0.067 | [9] 0.028 | tipifarnib 0.012 | mubritinib 0.025

SDHB (UniProt P21912)
inactive: [1] 0.027 | crizotinib 0.045 | [2] 0.023 | [3] -0.029 | duvelisib -0.005 | gandotinib 0.013 | tozasertib -0.023 | [4] -0.062 | doramapimod -0.041 | ispinesib 0.009 | bafetinib -0.073 | [5] -0.094 | nilotinib 0.115 | [6] -0.027 | dasatinib 0.041 | [7] -0.001 | [8] 0.009 | [9] 0 | tipifarnib 0.015 | mubritinib 0.03

Continuation:

SEC11C (UniProt Q9BY50)
inactive: [1] -0.084 | crizotinib -0.114 | [2] 0.062 | [3] -0.012 | duvelisib -0.02 | gandotinib -0.039 | tozasertib -0.04 | [4] -0.085 | doramapimod -0.022 | ispinesib -0.109 | bafetinib -0.069 | [5] 0.017 | nilotinib 0.02 | [6] 0.049 | dasatinib -0.042 | [7] -0.013 | [8] 0.031 | [9] 0.014 | tipifarnib -0.119 | mubritinib 0.009

RSU1 (UniProt Q15404)
inactive: [1] 0.026 | crizotinib 0.044 | [2] 0.026 | [3] -0.028 | duvelisib 0.053 | gandotinib 0 | tozasertib -0.02 | [4] -0.012 | doramapimod -0.014 | ispinesib -0.017 | bafetinib -0.053 | [5] -0.055 | nilotinib 0.015 | [6] 0.002 | dasatinib 0.041 | [7] 0 | [8] 0.007 | [9] 0.067 | tipifarnib 0.065 | mubritinib -0.006

S100A13 (UniProt Q99584)
inactive: [1] 0.018 | crizotinib -0.065 | [2] 0.067 | [3] -0.048 | duvelisib 0.044 | gandotinib -0.052 | tozasertib -0.016 | [4] -0.001 | doramapimod -0.002 | ispinesib -0.023 | bafetinib -0.063 | [5] -0.048 | nilotinib 0.007 | [6] 0.007 | dasatinib -0.034 | [7] -0.041 | [8] 0.091 | [9] 0.061 | tipifarnib -0.105 | mubritinib 0.071
